Experimental data as given in paper PMC8973297, “Synthesis and evaluation of new chalcones and oximes as anticancer agents” (RSC Advances, 2022).

Each molecule was assayed on Huvec (assay: In vitro cytotoxicity in normal human umbilical vein endothelial cells (MTT)).
Assay type: cell-based
Experimental: To see how harmful the target compounds were to normal cells, Huvec cells were chosen and treated with all of the compounds at the same time and in the same way as previously reported.[6,27] […] The in vitro therapeutic index (IVTI) was then calculated. It was determined by comparing the cytotoxicity activity (IC50) of compounds against MCF-7 cells, which were the most sensitive to the test compounds, to that of compounds against Huvec cells. IVTI was above 7 for all compounds.
All of the cell lines that were used were grown as described. A new medium was put in place after 24 hours. […] In order to make a stock solution of 10 mM, all of the compounds were mixed with DMSO. The final solutions were made by diluting the stock solution with the right volume of liquid in the media, keeping the final DMSO content at 0.5 percent. In every case, a triplicate was always made on the same plate. After 72 hours, 0.25 mg mL^−1 of MTT was added and incubated for 3 hours. The medium was taken out, and DMSO was added to dissolve the formazan crystals that were in it. To figure out how much the formazan absorbs, an ELISA plate reader was used to measure the absorbance at 570 nm. The background absorbance was measured at 690 nm. This is how the 690 nm background absorbance was taken out of the values at 570 nm. The average of the three repeats for each condition was found. In order to make the data easier to read, it was compared to the DMSO control cells that had 100% survival rate. The curves were made with GraphPad Prism, and the IC50 values were found from the plots.

In order of rising “IVTI, in vitro therapeutic index (Huvec IC50/MCF-7 IC50)” value:
1. Cc1nc(C)c(/C=C/C(=O)c2ccc(-c3cc4ccccc4o3)cc2)nc1C [Compound 9c, (E)-1-(4-(Benzofuran-2-yl)phenyl)-3-(3,5,6-trimethylpyrazin-2-yl)prop-2-en-1-one]  7.25
2. Cc1nc(C)c(/C=C/C(=O)c2cc3ccccc3o2)nc1C [Compound 8c, (E)-1-(Benzofuran-2-yl)-3-(3,5,6-trimethylpyrazin-2-yl)prop-2-en-1-one]  7.91
3. Cc1ccc(-c2ccc(C(=O)/C=C/c3nc(C)c(C)nc3C)cc2)o1 [Compound 9b, (E)-1-(4-(5-Methylfuran-2-yl)phenyl)-3-(3,5,6-trimethylpyrazin-2-yl)prop-2-en-1-one]  8.11
4. Cc1nc(C)c(/C=C/C(=O)c2cc3ccccc3s2)nc1C [Compound 8g, (E)-1-(Benzo[b]thiophen-2-yl)-3-(3,5,6-trimethylpyrazin-2-yl)prop-2-en-1-one]  8.20
5. Cc1ccc(C(=O)/C=C/c2nc(C)c(C)nc2C)o1 [Compound 8b, (E)-1-(5-Methylfuran-2-yl)-3-(3,5,6-trimethylpyrazin-2-yl)prop-2-en-1-one]  9.20
6. Cc1nc(C)c(/C=C/C(=O)c2ccc(-c3ccco3)cc2)nc1C [Compound 9a, (E)-1-(4-(Furan-2-yl)phenyl)-3-(3,5,6-trimethylpyrazin-2-yl)prop-2-en-1-one]  10.58
7. Cc1nc(C)c(/C=C/C(=O)c2ccc(-c3sccc3Cl)cc2)nc1C [Compound 9f, (E)-1-(4-(3-Chlorothiophen-2-yl)phenyl)-3-(3,5,6-trimethylpyrazin-2-yl)prop-2-en-1-one]  10.75
8. Cc1csc(-c2ccc(C(=O)/C=C/c3nc(C)c(C)nc3C)cc2)c1 [Compound 9e, (E)-1-(4-(4-Methylthiophen-2-yl)phenyl)-3-(3,5,6-trimethylpyrazin-2-yl)prop-2-en-1-one]  10.79
9. Cc1nc(C)c(/C=C/C(=O)c2cccs2)nc1C [Compound 8e, (E)-1-(Thiophen-2-yl)-3-(3,5,6-trimethylpyrazin-2-yl)prop-2-en-1-one]  11.01
10. Cc1ccc(C(=O)/C=C/c2nc(C)c(C)nc2C)s1 [Compound 8f, (E)-1-(5-Methylthiophen-2-yl)-3-(3,5,6-trimethylpyrazin-2-yl)prop-2-en-1-one]  11.83
11. Cc1nc(C)c(/C=C/C(=O)c2ccc(-c3cccs3)cc2)nc1C [Compound 9d, (E)-1-(4-(Thiophen-2-yl)phenyl)-3-(3,5,6-trimethylpyrazin-2-yl)prop-2-en-1-one]  12.17
12. Cc1nc(C)c(/C=C/C(=O)c2ccc(-c3ccc(Br)s3)cc2)nc1C [Compound 9g, (E)-1-(4-(5-Bromothiophen-2-yl)phenyl)-3-(3,5,6-trimethylpyrazin-2-yl)prop-2-en-1-one]  12.20
13. Cc1nc(C)c(/C=C/C(=N/O)c2ccc(-c3cc4ccccc4o3)cc2)nc1C [Compound 11c, (1Z,2E)-1-(4-(Benzofuran-2-yl)phenyl)-3-(3,5,6-trimethylpyrazin-2-yl)prop-2-en-1-one oxime]  12.36
14. COc1ccc2oc(C(=O)/C=C/c3nc(C)c(C)nc3C)cc2c1 [Compound 8d, (E)-1-(5-Methoxybenzofuran-2-yl)-3-(3,5,6-trimethylpyrazin-2-yl)prop-2-en-1-one]  12.80
15. Cc1ccc(-c2ccc(C(/C=C/c3nc(C)c(C)nc3C)=N\O)cc2)o1 [Compound 11b, (1Z,2E)-1-(4-(5-Methylfuran-2-yl)phenyl)-3-(3,5,6-trimethylpyrazin-2-yl)prop-2-en-1-one oxime]  15.82
16. Cc1nc(C)c(/C=C/C(=N/O)c2cc3ccccc3o2)nc1C [Compound 10c, (1Z,2E)-1-(Benzofuran-2-yl)-3-(3,5,6-trimethylpyrazin-2-yl)prop-2-en-1-one oxime]  16.29
17. Cc1nc(C)c(/C=C/C(=N/O)c2cc3ccccc3s2)nc1C [Compound 10g, (1Z,2E)-1-(Benzo[b]thiophen-2-yl)-3-(3,5,6-trimethylpyrazin-2-yl)prop-2-en-1-one oxime]  17.58
18. Cc1nc(C)c(/C=C/C(=O)c2ccco2)nc1C [Compound 8a, (E)-1-(Furan-2-yl)-3-(3,5,6-trimethylpyrazin-2-yl)prop-2-en-1-one]  19.72
19. Cc1nc(C)c(/C=C/C(=N\O)c2ccco2)nc1C [Compound 10a, (1E,2E)-1-(Furan-2-yl)-3-(3,5,6-trimethylpyrazin-2-yl)prop-2-en-1-one oxime]  21.69
20. COc1ccc2oc(C(/C=C/c3nc(C)c(C)nc3C)=N\O)cc2c1 [Compound 10d, (1Z,2E)-1-(5-Methoxybenzofuran-2-yl)-3-(3,5,6-trimethylpyrazin-2-yl)prop-2-en-1-one oxime]  28.26
21. Cc1nc(C)c(/C=C/C(=N/O)c2ccc(-c3ccco3)cc2)nc1C [Compound 11a, (1Z,2E)-1-(4-(Furan-2-yl)phenyl)-3-(3,5,6-trimethylpyrazin-2-yl)prop-2-en-1-one oxime]  29.26
22. Cc1nc(C)c(/C=C/C(=N/O)c2cccs2)nc1C [Compound 10e, (1Z,2E)-1-(Thiophen-2-yl)-3-(3,5,6-trimethylpyrazin-2-yl)prop-2-en-1-one oxime]  38.33
23. Cc1ccc(C(/C=C/c2nc(C)c(C)nc2C)=N\O)s1 [Compound 10f, (1Z,2E)-1-(5-Methylthiophen-2-yl)-3-(3,5,6-trimethylpyrazin-2-yl)prop-2-en-1-one oxime]  98.82
24. Cc1nc(C)c(/C=C/C(=N/O)c2ccc(-c3cccs3)cc2)nc1C [Compound 11d, (1Z,2E)-1-(4-(Thiophen-2-yl)phenyl)-3-(3,5,6-trimethylpyrazin-2-yl)prop-2-en-1-one oxime]  111.39
